Results are given in words; binding and its absence hold for the method and conditions named. In cells and extracts the contact can be indirect. Some results given as binding are weak or reduced against the parent protein; the word gives no strength. Sequences can lack the tags named with a protein.
Biological target: T1, HA-tagged mouse Bicc1 (wild type) (mouse) (UniProt Q99MQ1)
T1 sequence: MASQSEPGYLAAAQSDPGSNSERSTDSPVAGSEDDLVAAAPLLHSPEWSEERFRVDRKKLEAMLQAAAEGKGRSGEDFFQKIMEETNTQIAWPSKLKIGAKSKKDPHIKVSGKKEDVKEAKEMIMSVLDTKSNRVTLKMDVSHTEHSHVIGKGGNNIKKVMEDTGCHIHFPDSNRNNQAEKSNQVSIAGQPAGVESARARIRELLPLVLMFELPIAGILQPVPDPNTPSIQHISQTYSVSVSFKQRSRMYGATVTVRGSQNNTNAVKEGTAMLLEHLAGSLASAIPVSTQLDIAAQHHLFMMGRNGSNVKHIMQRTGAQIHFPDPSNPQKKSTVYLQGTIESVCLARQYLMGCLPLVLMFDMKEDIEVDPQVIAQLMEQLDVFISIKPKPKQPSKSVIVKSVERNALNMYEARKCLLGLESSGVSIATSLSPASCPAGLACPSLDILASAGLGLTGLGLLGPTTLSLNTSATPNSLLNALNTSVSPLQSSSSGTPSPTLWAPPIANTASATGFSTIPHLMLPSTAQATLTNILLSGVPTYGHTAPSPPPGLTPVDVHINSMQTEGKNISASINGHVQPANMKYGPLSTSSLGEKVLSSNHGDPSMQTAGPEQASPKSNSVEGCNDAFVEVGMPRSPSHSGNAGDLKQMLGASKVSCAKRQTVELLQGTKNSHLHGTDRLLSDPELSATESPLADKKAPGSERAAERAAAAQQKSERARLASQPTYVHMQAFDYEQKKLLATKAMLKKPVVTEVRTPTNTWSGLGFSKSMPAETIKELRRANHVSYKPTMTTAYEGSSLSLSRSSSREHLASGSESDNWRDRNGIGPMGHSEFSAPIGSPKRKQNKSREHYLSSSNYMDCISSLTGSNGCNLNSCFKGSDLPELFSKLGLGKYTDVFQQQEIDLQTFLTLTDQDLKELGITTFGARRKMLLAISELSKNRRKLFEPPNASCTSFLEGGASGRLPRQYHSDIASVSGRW
Test: co-IP

The chains behind the UniProt entries cited, without tags or fusion partners.
UniProt Q8K0V4, whole entry: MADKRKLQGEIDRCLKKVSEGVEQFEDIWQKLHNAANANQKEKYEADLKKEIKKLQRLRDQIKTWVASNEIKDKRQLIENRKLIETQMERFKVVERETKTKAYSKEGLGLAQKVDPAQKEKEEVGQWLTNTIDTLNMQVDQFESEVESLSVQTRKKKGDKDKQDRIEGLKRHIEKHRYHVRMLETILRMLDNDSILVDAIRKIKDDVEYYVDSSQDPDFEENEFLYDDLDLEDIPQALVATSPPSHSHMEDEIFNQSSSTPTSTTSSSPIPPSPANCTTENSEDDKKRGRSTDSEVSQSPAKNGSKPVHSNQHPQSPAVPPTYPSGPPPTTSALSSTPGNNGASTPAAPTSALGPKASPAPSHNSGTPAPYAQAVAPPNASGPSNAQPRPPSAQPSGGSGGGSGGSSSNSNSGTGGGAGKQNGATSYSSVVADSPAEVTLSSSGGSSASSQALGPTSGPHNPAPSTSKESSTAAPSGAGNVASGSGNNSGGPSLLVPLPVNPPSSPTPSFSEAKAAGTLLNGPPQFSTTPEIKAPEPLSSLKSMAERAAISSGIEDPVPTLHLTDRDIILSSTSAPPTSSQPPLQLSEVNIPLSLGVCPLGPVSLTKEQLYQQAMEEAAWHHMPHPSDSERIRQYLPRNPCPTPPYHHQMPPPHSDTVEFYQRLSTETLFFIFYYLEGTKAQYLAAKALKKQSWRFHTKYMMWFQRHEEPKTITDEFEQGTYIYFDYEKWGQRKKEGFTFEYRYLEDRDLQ
UniProt A5YKK6, whole entry: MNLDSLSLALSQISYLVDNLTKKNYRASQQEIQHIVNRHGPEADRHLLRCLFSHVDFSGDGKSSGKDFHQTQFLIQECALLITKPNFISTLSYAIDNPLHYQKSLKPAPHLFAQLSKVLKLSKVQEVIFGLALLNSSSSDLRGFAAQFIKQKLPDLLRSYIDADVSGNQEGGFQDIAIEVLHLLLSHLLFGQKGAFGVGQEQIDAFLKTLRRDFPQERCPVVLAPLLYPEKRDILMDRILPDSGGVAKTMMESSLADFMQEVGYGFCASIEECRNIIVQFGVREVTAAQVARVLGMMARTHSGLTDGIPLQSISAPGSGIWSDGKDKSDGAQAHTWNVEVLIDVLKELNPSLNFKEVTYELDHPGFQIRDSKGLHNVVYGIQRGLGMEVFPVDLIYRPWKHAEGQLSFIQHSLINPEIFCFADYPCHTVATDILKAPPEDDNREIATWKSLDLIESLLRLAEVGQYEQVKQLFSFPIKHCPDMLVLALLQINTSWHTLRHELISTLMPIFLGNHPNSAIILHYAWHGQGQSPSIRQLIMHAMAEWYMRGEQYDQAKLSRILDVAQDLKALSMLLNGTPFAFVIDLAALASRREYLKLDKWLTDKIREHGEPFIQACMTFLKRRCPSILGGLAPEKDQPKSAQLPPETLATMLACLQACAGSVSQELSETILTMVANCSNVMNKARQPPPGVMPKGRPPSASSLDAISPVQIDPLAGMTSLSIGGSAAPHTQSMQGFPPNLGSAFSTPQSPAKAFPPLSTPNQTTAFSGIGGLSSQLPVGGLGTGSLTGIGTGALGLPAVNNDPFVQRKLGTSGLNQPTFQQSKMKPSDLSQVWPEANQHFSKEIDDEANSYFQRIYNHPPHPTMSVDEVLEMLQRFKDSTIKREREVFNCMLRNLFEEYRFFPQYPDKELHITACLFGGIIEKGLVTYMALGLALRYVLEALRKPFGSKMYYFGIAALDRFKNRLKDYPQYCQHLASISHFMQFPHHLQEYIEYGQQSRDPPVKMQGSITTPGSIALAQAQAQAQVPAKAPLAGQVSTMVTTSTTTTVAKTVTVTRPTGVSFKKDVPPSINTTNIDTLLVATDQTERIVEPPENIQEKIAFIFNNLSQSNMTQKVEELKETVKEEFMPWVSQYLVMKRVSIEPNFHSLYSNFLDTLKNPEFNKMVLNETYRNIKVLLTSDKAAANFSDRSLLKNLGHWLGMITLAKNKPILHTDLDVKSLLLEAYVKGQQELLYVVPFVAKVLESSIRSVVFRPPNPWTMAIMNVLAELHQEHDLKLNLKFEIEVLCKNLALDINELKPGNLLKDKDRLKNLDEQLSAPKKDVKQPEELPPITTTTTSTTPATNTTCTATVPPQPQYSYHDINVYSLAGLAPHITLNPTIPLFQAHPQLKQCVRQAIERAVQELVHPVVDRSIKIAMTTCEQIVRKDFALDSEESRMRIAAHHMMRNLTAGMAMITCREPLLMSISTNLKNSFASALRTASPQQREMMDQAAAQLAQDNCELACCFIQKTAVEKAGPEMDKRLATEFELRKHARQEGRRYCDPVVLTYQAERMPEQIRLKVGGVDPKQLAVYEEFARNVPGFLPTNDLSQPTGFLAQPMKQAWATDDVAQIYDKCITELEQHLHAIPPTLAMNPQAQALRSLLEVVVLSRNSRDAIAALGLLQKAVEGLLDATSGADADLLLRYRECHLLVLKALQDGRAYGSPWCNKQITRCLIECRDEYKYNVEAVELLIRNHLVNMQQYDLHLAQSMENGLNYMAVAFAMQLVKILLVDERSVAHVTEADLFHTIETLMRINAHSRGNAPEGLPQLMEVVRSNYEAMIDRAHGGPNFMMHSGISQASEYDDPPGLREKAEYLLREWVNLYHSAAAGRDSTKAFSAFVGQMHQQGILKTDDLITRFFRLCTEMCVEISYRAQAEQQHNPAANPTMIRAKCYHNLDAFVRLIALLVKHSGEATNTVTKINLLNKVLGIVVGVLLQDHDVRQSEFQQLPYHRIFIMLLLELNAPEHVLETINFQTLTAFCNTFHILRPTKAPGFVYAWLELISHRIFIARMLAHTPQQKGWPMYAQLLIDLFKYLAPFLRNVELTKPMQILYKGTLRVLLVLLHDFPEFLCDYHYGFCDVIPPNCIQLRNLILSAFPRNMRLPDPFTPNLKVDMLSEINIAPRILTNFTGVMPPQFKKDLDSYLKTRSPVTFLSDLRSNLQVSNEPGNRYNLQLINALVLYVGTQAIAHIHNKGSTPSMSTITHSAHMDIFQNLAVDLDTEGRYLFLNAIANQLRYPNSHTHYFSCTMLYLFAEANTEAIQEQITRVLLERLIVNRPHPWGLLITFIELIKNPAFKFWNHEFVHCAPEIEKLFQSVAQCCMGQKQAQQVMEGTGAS

| binding | Substance |
| --- | --- |
| binds | FLAG-tagged mouse Cnot3 (Cnot3-Myc-Flag) (from UniProt Q8K0V4 1-751) |
| binds | endogenous Cnot1 (from UniProt A5YKK6 1-2376) |

Reference: publication doi:10.1101/2020.02.02.931477
